The results are deposited in PubChem (AID1159521; Tox21, 2015).

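CHO cells with doxycycline-inducible ROR-gamma and a ROR response element luciferase reporter; reduced light output after 16 h marks antagonism. Each compound was run as a concentration series, mostly reaching 92.4 µM. The value is the fitted potency (AC50, nM) of the inhibition curve; a lower value means a more potent inhibitor. Calls follow curve shape; inconclusive means weak, poorly fitted or mixed curves, or an effect in the opposite direction.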

Values are in nM. Every entry below has the call inconclusive. These entries are mostly ones the record files as inconclusive; other results of the assay are not listed here. Potencies fitted to partial, single-point or poorly fitting curves are rough. Some entries filed as inconclusive have a full curve. An entry listed twice with the same setting is a separate test.

SMILES	Potency (nM)	curve
CO[C@H]1C=CO[C@@]2(C)Oc3c(C)c(O)c4c(O)c(c(/C=N/N5CCN(C)CC5)c(O)c4c3C2=O)NC(=O)/C(C)=C\C=C[C@H](C)[C@H](O)[C@@H](C)[C@@H](O)[C@@H](C)[C@H](OC(C)=O)[C@@H]1C	61441	inhibitor, partial curve, poor fit
CCC(=O)Nc1ccc(O)cc1	298.5	inhibitor, single point
CN(C)[C@@H]1C(=O)C(C(N)=O)=C(O)[C@@]2(O)C(=O)C3=C(O)c4c(O)ccc(Cl)c4[C@@H](O)[C@H]3C[C@@H]12	29849	inhibitor
CN(C)c1ccc(SC#N)cc1	68589	inhibitor, single point
CN(C)CCCN1c2ccccc2Sc2ccc(Cl)cc21	26603	inhibitor
NNc1nc(-c2ccc(N)cc2)cs1	8635	inhibitor, full curve
C=C(C)C(=O)OCCOC(=O)C(=C)C	19331	inhibitor, partial curve
CN1CCN(CCCN2c3ccccc3Sc3ccc(Cl)cc32)CC1	33491	inhibitor, single point
Cc1cc(F)ccc1-c1cc(N2CC[C@@H](O)[C@H]2CO)ncc1N(C)C(=O)C(C)(C)c1cc(C(F)(F)F)cc(C(F)(F)F)c1	53646	inhibitor, single point
Nc1cc([N+](=O)[O-])ccc1O	60819	inhibitor, partial curve, poor fit
CN1C[C@H]2c3ccccc3Oc3ccc(Cl)cc3[C@@H]2C1	11883	inhibitor, partial curve, poor fit
c1ccc2c(c1)-c1cccc3c1c-2cc1ccccc13	59703	inhibitor, single point
CC(=O)O[C@]1(C(C)=O)CC[C@H]2[C@@H]3C=C(C)C4=CC(=O)CC[C@]4(C)[C@H]3CC[C@@]21C	18833	inhibitor, partial curve, poor fit
Cc1oc(-c2ccccc2)nc1CCOc1cccc2c1ccn2CCC(=O)O	1723	inhibitor, full curve, poor fit
CC(C)CC(C)(O)C#CC(C)(O)CC(C)C (centres unmarked)	53376	inhibitor, partial curve, poor fit
CCN(CC)c1ccc(N)cc1	31480	inhibitor
O=C1OC(OC(=O)c2cccnc2Nc2cccc(C(F)(F)F)c2)c2ccccc21 (centres unmarked)	33491	inhibitor, single point
NC(N)=NC(N)=NCCc1ccccc1	27139	inhibitor, partial curve, poor fit
CC1(C)C(=O)N(Cl)C(=O)N1Br	4856	inhibitor, full curve, poor fit
Cc1c(C(=O)O)cccc1[N+](=O)[O-]	984.6	inhibitor, partial curve, poor fit
Nc1ccc(N)c2ccccc12	48508	inhibitor, full curve, poor fit
O=C(O)CCCCC1CCSS1 (centres unmarked)	30606	inhibitor, partial curve, poor fit
COc1ccccc1OCCNCC(O)COc1cccc2[nH]c3ccccc3c12 (centres unmarked)	26603	inhibitor, partial curve, poor fit
O=C(O)C1(C(=O)Nc2ccc(Cl)cc2Cl)CC1	61130	inhibitor, single point
O=Cc1c2ccccc2c(Cl)c2ccccc12	13349	inhibitor, partial curve, poor fit
CCCCCCCCCCCCOCC1CO1 (centres unmarked)	122.2	inhibitor, single point
COc1cc(C=O)ccc1O	54.5	inhibitor, full curve, poor fit
COc1ccc2cc1Oc1ccc(cc1)C[C@H]1c3c(cc4c(c3Oc3cc5c(cc3OC)CCN(C)[C@@H]5C2)OCO4)CCN1C	3349	inhibitor, full curve
N/C(=N\N=C\c1ccc(Cl)cc1)N/N=C/c1ccc(Cl)cc1	33491	inhibitor, single point
CNCC[C@H](Oc1cccc2ccccc12)c1cccs1	14960	inhibitor, partial curve, poor fit
C[C@@H]1C[C@H]2[C@@H]3CCC4=CC(=O)C=C[C@]4(C)[C@@]3(F)[C@@H](O)C[C@]2(C)[C@@]1(O)C(=O)CO	43894	inhibitor, partial curve
CC1=NN(c2ccccc2)C(=O)C1	30824	inhibitor, full curve, poor fit
CCC1=C[C@@H]2CN(C1)Cc1c([nH]c3ccccc13)[C@@](C(=O)OC)(c1cc3c(cc1OC)N(C)[C@H]1[C@@](O)(C(=O)OC)[C@H](OC(C)=O)[C@]4(CC)C=CCN5CC[C@]31[C@@H]54)C2	943.9	inhibitor, full curve, poor fit
O=C(O)CCCCC1CCSS1 (centres unmarked)	75942	inhibitor, single point
O=C1OC(=O)c2cc(-c3ccc4c(c3)C(=O)OC4=O)ccc21	76958	inhibitor, single point
CSc1ccc2c(c1)C(N1CCN(C)CC1)Cc1ccccc1S2 (centres unmarked)	26603	inhibitor, partial curve, poor fit
O=C(CC(C(=O)OC1CCCCC1)S(=O)(=O)O)OC1CCCCC1 (centres unmarked)	6768	inhibitor, partial curve, poor fit
NC(N)=NC(N)=NCCc1ccccc1	26603	inhibitor, single point
CCCCc1nc2cccnc2n1Cc1ccc(-c2ccccc2-c2nnn[nH]2)cc1	76958	inhibitor, single point
O=C1OCCN1/N=C/c1ccc([N+](=O)[O-])o1	3.8	inhibitor, full curve, poor fit
Nc1cccc(N)c1	6845	inhibitor, single point
COc1ccc(-c2ccc3cc(C(=O)O)ccc3c2)cc1C12CC3CC(CC(C3)C1)C2	2660	inhibitor, full curve
Clc1ccc2n[nH]nc2c1	6859	inhibitor, single point
CCOC(=O)C(C#N)=C(c1ccccc1)c1ccccc1	68589	inhibitor, single point
CC[C@H]1O[C@]2(CC[C@@H]1C)C[C@@H]1C[C@@H](C/C=C(\C)C[C@@H](C)/C=C/C=C3\CO[C@@H]4[C@H](O)C(C)=C[C@@H](C(=O)O1)[C@]34O)O2	24113	inhibitor, partial curve, poor fit
O=C1Cc2cc(CCN3CCN(c4nsc5ccccc45)CC3)c(Cl)cc2N1	4216	inhibitor, full curve, poor fit
C=Cc1ccccc1	426.6	inhibitor, full curve, poor fit
CCCCCCCCCCCCCOP(=O)(O)O	48.6	inhibitor, full curve, poor fit
CCOC(=O)[C@H](CCc1ccccc1)N[C@@H](C)C(=O)N1Cc2cc(OC)c(OC)cc2C[C@H]1C(=O)O	211.3	inhibitor, full curve, poor fit
CCC(=O)OCCc1ccccc1	58528	inhibitor, partial curve, poor fit
CCOC(=O)[C@H](CCc1ccccc1)N[C@@H](C)C(=O)N1Cc2ccccc2C[C@H]1C(=O)O	29849	inhibitor, single point
CCCC(C(=O)OCCN(CC)CC)(c1ccccc1)c1ccccc1	3349	inhibitor, partial curve, poor fit
Cc1oc(-c2ccccc2)nc1CCC(=O)c1ccc(CC2SC(=O)NC2=O)cc1 (centres unmarked)	188.3	inhibitor, full curve, poor fit
N=c1ccn2c(n1)O[C@H]1[C@H](O)[C@@H](CO)O[C@H]12	17228	inhibitor, partial curve, poor fit
CC[C@H](C)C(=O)O[C@H]1C[C@@H](C)C=C2C=C[C@H](C)[C@H](CC[C@@H]3C[C@@H](O)CC(=O)O3)[C@H]21	6682	inhibitor, single point
C[C@]12CC[C@@H]3c4ccc(O)cc4CC[C@H]3[C@@H]1CC[C@@H]2OC(=O)CCC1CCCC1	33491	inhibitor, single point

Once more, the final 7:

- CCC(=O)OCCc1ccccc1 | Potency 58528 nM (inhibitor, partial curve, poor fit)
- CCOC(=O)[C@H](CCc1ccccc1)N[C@@H](C)C(=O)N1Cc2ccccc2C[C@H]1C(=O)O | Potency 29849 nM (inhibitor, single point)
- CCCC(C(=O)OCCN(CC)CC)(c1ccccc1)c1ccccc1 | Potency 3349 nM (inhibitor, partial curve, poor fit)
- Cc1oc(-c2ccccc2)nc1CCC(=O)c1ccc(CC2SC(=O)NC2=O)cc1 (centres unmarked) | Potency 188.3 nM (inhibitor, full curve, poor fit)
- N=c1ccn2c(n1)O[C@H]1[C@H](O)[C@@H](CO)O[C@H]12 | Potency 17228 nM (inhibitor, partial curve, poor fit)
- CC[C@H](C)C(=O)O[C@H]1C[C@@H](C)C=C2C=C[C@H](C)[C@H](CC[C@@H]3C[C@@H](O)CC(=O)O3)[C@H]21 | Potency 6682 nM (inhibitor, single point)
- C[C@]12CC[C@@H]3c4ccc(O)cc4CC[C@H]3[C@@H]1CC[C@@H]2OC(=O)CCC1CCCC1 | Potency 33491 nM (inhibitor, single point)